Experimental data reported in article PMC10571763.
These are yes or no findings as the source states them, for the method shown. In cells and extracts the contact can be indirect. Here binding means that the protein was enriched with, or labelled near, the bait; the list need not be complete.

Molecular target: T1, Tspan8 (human) (UniProt P19075)
T1 sequence: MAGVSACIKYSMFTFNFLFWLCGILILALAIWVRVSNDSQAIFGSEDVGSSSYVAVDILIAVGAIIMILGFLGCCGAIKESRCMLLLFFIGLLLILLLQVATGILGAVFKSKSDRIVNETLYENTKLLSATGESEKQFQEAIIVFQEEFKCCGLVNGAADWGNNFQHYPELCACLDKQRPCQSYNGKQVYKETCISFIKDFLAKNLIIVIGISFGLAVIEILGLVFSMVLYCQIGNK
Experiment: affinity purification with mass spectrometry; Is1-tspan8 cells (express Tspan8) lysed in situ in Brij97; precleared; complexes isolated on beads coupled to mAb TS29.2 (Tspan8) or TS9 (CD9); eluted in Laemmli buffer with 1% SDS; non-reducing SDS-PAGE, trypsin digest, LTQ-Orbitrap Velos

B1: endothelin converting enzyme 1 (ECE1) (enzyme, UniProt P42892 1-770)
chain: MRGVWPPPVSALLSALGMSTYKRATLDEEDLVDSLSEGDAYPNGLQVNFHSPRSGQRCWAARTQVEKRLVVLVVLLAAGLVACLAALGIQYQTRSPSVCLSEACVSVTSSILSSMDPTVDPCHDFFSYACGGWIKANPVPDGHSRWGTFSNLWEHNQAIIKHLLENSTASVSEAERKAQVYYRACMNETRIEELRAKPLMELIERLGGWNITGPWAKDNFQDTLQVVTAHYRTSPFFSVYVSADSKNSNSNVIQVDQSGLGLPSRDYYLNKTENEKVLTGYLNYMVQLGKLLGGGDEEAIRPQMQQILDFETALANITIPQEKRRDEELIYHKVTAAELQTLAPAINWLPFLNTIFYPVEINESEPIVVYDKEYLEQISTLINTTDRCLLNNYMIWNLVRKTSSFLDQRFQDADEKFMEVMYGTKKTCLPRWKFCVSDTENNLGFALGPMFVKATFAEDSKSIATEIILEIKKAFEESLSTLKWMDEETRKSAKEKADAIYNMIGYPNFIMDPKELDKVFNDYTAVPDLYFENAMRFFNFSWRVTADQLRKAPNRDQWSMTPPMVNAYYSPTKNEIVFPAGILQAPFYTRSSPKALNFGGIGVVVGHELTHAFDDQGREYDKDGNLRPWWKNSSVEAFKRQTECMVEQYSNYSVNGEPVNGRHTLGENIADNGGLKAAYRAYQNWVKKNGAEHSLPTLGLTNNQLFFLGFAQVWCSVRTPESSHEGLITDPHSPSRFRVIGSLSNSKEFSEHFRCPPGSPMNPPHKCEVW
binding: binds
